Data: PubChem BioAssay AID493014 (National Center for Advancing Translational Sciences (NCATS), 2011)
Some of the results follow. Shown are side measurements of this screen, not its main read-out; they come without a call. The list favours compounds with an active or inconclusive main result. Potencies come from curve fits of mixed quality, noted in brackets.

Experiment: qHTS Assay to Find Inhibitors of Chronic Active B-Cell Receptor Signaling
Settings: ABC-DLBCL IkBa-CBG/CBR reporter, luminescence ratio (green luciferase fused to IkBa over red control in TMD8 lymphoma cells), 4 h
Method in brief: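 Compounds up to 46 uM were incubated four hours with TMD8 cells whose green CBG68 luciferase is fused to IkappaBalpha; red CBR luminescence normalised the signal, and concentration-effect curves were fitted to fusion, red and ratio data.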

[1] = measured here: CBR red luminescence, cell number
[2] = measured here: IkBa-CBG green luminescence

SMILES	AC50 [1]	AC50 [2]
CC1=CC(=NOC(=O)/C=C/c2ccccc2)C=C(C)C1=O	35.5 µM [falling, single point]	–
O=C(c1ccncc1)c1ccc(NS(=O)(=O)c2ccc(Br)s2)cc1	35.5 µM [falling, single point]	–
CCCn1c(O)c(C=Nc2ccccc2)sc1=S	4.47 µM [falling, single point]	–
Cc1ccc2nc(COc3ccc(Cl)cc3)cc(=O)n2c1	0.398 µM [rising, partial curve, poor fit]	–
CCOC(=O)C1CCN(c2ncnc3cc(OC)c(OC)cc23)CC1	31.6 µM [rising, single point]	–
COc1ccc(C2=NN(C(=O)c3cccc([N+](=O)[O-])c3)C(c3cccc([N+](=O)[O-])c3)C2)cc1 (stereo unspecified)	25.9 µM [falling, single point]	–
COC(=O)CC(NC(=O)c1ccc(C)cc1)c1ccc2c(c1)OCO2 (stereo unspecified)	1.64 µM [falling, partial curve, poor fit]	–
O=C(c1ccc(F)cc1)c1cnc(Nc2ccccc2)s1	1.58 µM [falling, full curve]	–
CN(C)C(=O)N1CCCC(C(=O)NCc2ccccc2Cl)C1 (stereo unspecified)	23.1 µM [rising, single point]	–
COc1ccc(C2CC(c3ccccc3)=NN2c2ccc(N)cc2)cc1 (stereo unspecified)	7.31 µM [rising, partial curve, poor fit]	–
COc1ccc(N(CC(=O)Nc2cccc3ccccc23)S(C)(=O)=O)c(OC)c1	4.47 µM [rising, partial curve, poor fit]	12.6 µM [falling, single point]
COc1ccc(CN2CCCC(C(=O)c3cccc(C(F)(F)F)c3)C2)cc1O (stereo unspecified)	0.562 µM [falling, full curve, poor fit]	–
Cc1ccc(COn2c(-c3ccc(Cl)cc3Cl)nc3ncccc32)cc1	13 µM [falling, partial curve, poor fit]	–
Cc1ccc(OCCOc2cccc(Br)c2)c([N+](=O)[O-])n1	6.51 µM [rising, partial curve]	–
CC1(C)Oc2ccc(C(=O)NC3CCCC3)cc2N(CC(=O)NC2CCCC2)C1=O	23.1 µM [rising, single point]	–
CCCn1c(SCC(=O)Nc2cccc(NC(C)=O)c2)nnc1C(C)C	1 µM [falling, full curve, poor fit]	–
COc1ccccc1CN(C)C(=O)c1cc(-c2cccs2)nc2ccccc12	22.4 µM [falling, single point]	–
CSCC[C@H](NC(=O)C1CCN(C(=O)[C@H](Cc2ccccc2)NS(=O)(=O)c2ccc(C)cc2)CC1)C(=O)O	7.08 µM [rising, full curve, poor fit]	–
C=CCN=C(NC#N)SCC(=O)c1cccc(OC)c1	14.1 µM [falling, single point]	–
Cc1c(NC(=O)COC(=O)/C=C/c2cccc(Cl)c2)c(=O)n(-c2ccccc2)n1C	3.26 µM [rising, full curve, poor fit]	–

SMILES	AC50 [1]	AC50 [2]
CN(C)CCCNc1c2c(nc3ccccc13)CCC2	5.62 µM [falling, partial curve, poor fit]	–
O=C(O)c1cccc(-n2cccc2/C=C2/NC(=O)N(c3ccc(Cl)cc3)C2=O)c1	35.5 µM [falling, single point]	–
CC1CCCCN1Cc1c(O)ccc2c(=O)c(-c3ccc(Cl)cc3)coc12 (stereo unspecified)	2 µM [rising, partial curve, poor fit]	–
COc1ccc(CC(NC(C)=O)C(=O)NC2CCN(c3c(Cc4ccccc4)c(C)nc4ncnn34)CC2)c(OC)c1 (stereo unspecified)	11.2 µM [rising, partial curve]	–
COc1ccccc1-n1c(SCC(N)=O)nc2sc3c(c2c1=O)CCC3	5.62 µM [rising, full curve, poor fit]	–
CCCCC[C@@H]1C=C(C(=O)O)[C@H](c2cccc(C)c2)N1S(=O)(=O)c1ccc(C)cc1	3.66 µM [rising, partial curve, poor fit]	–
Cc1c(C(=O)c2ccccc2)c2ccccn2c1CCc1ccccn1	22.4 µM [falling, single point]	–
Cc1ccc(S(=O)(=O)/N=C(/NC(=S)Nc2cccc(C)c2)c2ccccc2)cc1	16.4 µM [falling, single point]	–
Cc1ccc(SCc2nc(-c3ccncc3)no2)cc1	20.6 µM [rising, partial curve]	–
COC(=O)c1c(C)[nH]c(C=O)c1-c1ccccc1	3.98 µM [rising, full curve]	–
CC(C)(C)CN1CCN(CC#Cc2ccccc2)CC1CCO (stereo unspecified)	28.2 µM [falling, single point]	–
Cc1ccnc2nc(C(=O)Nc3nnc(-c4ccccc4)o3)nn12	20 µM [falling, single point]	–
Cn1nc(-c2ccccc2)c(N2CCCCC2)cc1=O	3.55 µM [rising, partial curve, poor fit]	–
CCc1ccc(-n2c(=O)c3c(C)c(C(=O)N(C)C)sc3n(CC(=O)Nc3cc(Cl)ccc3C)c2=O)cc1	5.62 µM [falling, full curve, poor fit]	–
COc1cccc(CNC(=O)c2cccnc2Sc2ccc(Cl)cc2)c1	1.26 µM [rising, full curve, poor fit]	–
CCN1CCN(CCNC(=O)c2ccc(/C=C3/Sc4ccccc4N(Cc4cccc(C)c4)C3=O)cc2)CC1	10 µM [rising, partial curve, poor fit]	–
CCOc1cc(/C=C2\CN(C)C/C(=C\c3ccc(O)c(OCC)c3)C2=O)ccc1O	35.5 µM [falling, single point]	3.16 µM [falling, partial curve, poor fit]
O=C(O)CCSCCCN1C(=O)c2cccc3cccc(c23)C1=O	1.41 µM [falling, full curve]	–
CC(C)N(C)S(=O)(=O)c1ccc(NC(=O)C2=COCCO2)cc1	16.4 µM [rising, single point]	–

A different layout for part of the listing above:
COc1ccc(C2=NN(C(=O)c3cccc([N+](=O)[O-])c3)C(c3cccc([N+](=O)[O-])c3)C2)cc1 (stereo unspecified)
  AC50 [1]: 25.9 µM [falling, single point]
COc1ccc(N(CC(=O)Nc2cccc3ccccc23)S(C)(=O)=O)c(OC)c1
  AC50 [1]: 4.47 µM [rising, partial curve, poor fit]
  AC50 [2]: 12.6 µM [falling, single point]
